PubChem BioAssay AID1259424, University of Nebraska Medical Center – 2018

Assay: 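Find knockdowns that reproduce the expression shifts seen after KSR1 loss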 (primary screen)
Cells: human HCT116 colon cancer cells
Reagents: siRNA pool against human genes, 50 nM
Read-out: 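Six signature mRNAs by branched-DNA multiplex assay, scaled to two housekeeping genes and non-targeting median, log2; matched to mean KSR1 knockdown profile by Pearson correlation and euclidean distance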
Scale: mean correlation with KSR1 profile and KSR1 correlation: higher = expression change more like KSR1 knockdown; mean distance from KSR1 profile: higher = expression change less like KSR1 knockdown
The deposit covers about 14,000 reagents; below is a random part of them. 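Higher correlation or smaller distance means closer resemblance to KSR1 loss; control wells, including KSR1 knockdowns, recur on many plates.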 Not all columns of the deposit are shown. Not given: the time to read-out.

gene | mean correlation with KSR1 profile | mean distance from KSR1 profile | KSR1 correlation, replicate 1 | KSR1 correlation, replicate 2
PKP4 | -0.352 | 2.02 | -0.0581 | -0.569
VPS54 | -0.355 | 3.3 | -0.274 | -0.445
TENT4A | -0.0215 | 2.05 | -0.127 | 0.17
EPHA5 | 0.604 | 1.14 | 0.427 | 0.421
IL10RA | -0.036 | 3.61 | -0.0242 | -0.069
SLC35B1 | -0.234 | 2.59 | -0.0504 | -0.254
MAPKAP1 | -0.34 | 1.32 | -0.484 | -0.0818
BLOC1S4 | -0.102 | 3.21 | -0.203 | -0.242
CRH | 0.377 | 1.03 | 0.352 | 0.377
NR2C1 | -0.19 | 1.44 | 0.314 | -0.0836
RARRES2 | -0.172 | 3.34 | -0.149 | -0.283
MYH14 | 0.836 | 1.9 | 0.842 | 0.848
ZZEF1 | -0.152 | 2.59 | 0.0362 | -0.308
P4HA1 | 0.601 | 1.12 | 0.609 | 0.494
KLK13 | -0.088 | 1.53 | 0.282 | -0.114
TMEM63A | -0.934 | 1.62 | -0.889 | -0.809
TNFRSF25 | -0.292 | 2.34 | -0.0738 | -0.444
GSG1 | 0.371 | 2.14 | 0.379 | 0.169
CTDSPL | -0.0525 | 2.43 | 0.0185 | -0.135
UNC13A | -0.172 | 2.83 | -0.108 | -0.289
ARVCF | -0.253 | 1.48 | -0.0052 | -0.6
TMEM255A | -0.487 | 2.79 | -0.66 | -0.553
HIPK2 | 0.409 | 2.16 | 0.25 | 0.239
TNMD | -0.452 | 2.37 | -0.325 | -0.482
MYOCD | 0.358 | 1.45 | 0.101 | 0.402
CYP2A6 | 0.0849 | 1.5 | 0.0673 | 0.0598
ACYP1 | -0.357 | 1.46 | -0.724 | -0.433
GHRHR | -0.0955 | 2.6 | 0.00568 | 0.0187
SLC18A1 | 0.0605 | 1.88 | 0.163 | -0.0777
CCN6 | -0.345 | 2.1 | -0.135 | -0.511
COX7B | -0.157 | 2.12 | -0.0825 | -0.348
INSRR | 0.236 | 1.92 | 0.161 | 0.384
GPKOW | -0.149 | 1.87 | -0.27 | -0.357
EPHX4 | -0.104 | 1.42 | 0.222 | 0.442
CCHCR1 | -0.581 | 3.2 | -0.477 | -0.511
CDK5RAP3 | 0.369 | 5.02 | 0.469 | 0.463
TNFRSF4 | 0.444 | 1.74 | 0.514 | 0.317

Sorted by “mean correlation with KSR1 profile” (lowest first): 6 of the entries above
gene | mean correlation with KSR1 profile | mean distance from KSR1 profile | KSR1 correlation, replicate 1 | KSR1 correlation, replicate 2
TMEM255A | -0.487 | 2.79 | -0.66 | -0.553
ARVCF | -0.253 | 1.48 | -0.0052 | -0.6
UNC13A | -0.172 | 2.83 | -0.108 | -0.289
CTDSPL | -0.0525 | 2.43 | 0.0185 | -0.135
GSG1 | 0.371 | 2.14 | 0.379 | 0.169
HIPK2 | 0.409 | 2.16 | 0.25 | 0.239

Further entries:
gene | mean correlation with KSR1 profile | mean distance from KSR1 profile | KSR1 correlation, replicate 1 | KSR1 correlation, replicate 2
HERPUD1 | -0.167 | 2.27 | -0.302 | -0.323
AP3S1 | -0.288 | 2.64 | -0.344 | -0.3
PDCL3 | -0.558 | 3.37 | -0.708 | -0.625
BTBD8 | -0.418 | 1.85 | -0.441 | -0.369
IFT46 | -0.522 | 1.55 | -0.202 | -0.574
MMP17 | -0.545 | 1.42 | -0.18 | -0.853
ARHGEF2 | -0.342 | 1.85 | -0.237 | 0.0904
COG4 | 0.419 | 1.04 | 0.383 | 0.212
GSTA1 | -0.188 | 3.71 | -0.029 | -0.385
MYEOV | -0.00624 | 3.43 | -0.0433 | -0.253
PTPRB | 0.118 | 1.12 | 0.491 | -0.299
DZIP1 | -0.227 | 1.43 | 0.0874 | -0.231
DEXI | -0.0737 | 2.1 | -0.485 | -0.469
NOC2L | -0.659 | 5.53 | -0.142 | -0.633
TSPAN12 | 0.219 | 3.04 | 0.405 | 0.0684
PLCL2 | 0.0482 | 3.96 | 0.0508 | 0.084
ZFX | -0.0595 | 4.69 | -0.105 | 0.0347
CCS | -0.196 | 2.78 | -0.141 | -0.082
DSC2 | -0.103 | 1.51 | 0.624 | -0.716
IL18R1 | 0.535 | 1.38 | 0.692 | 0.366
S100A3 | 0.545 | 1.05 | 0.0306 | 0.421
EBNA1BP2 | -0.638 | 4.53 | -0.518 | -0.765
OR51B2 | 0.65 | 2.93 | 0.678 | 0.465
RHD | -0.19 | 2.77 | -0.29 | -0.366
MOB4 | -0.661 | 2.19 | -0.723 | -0.589
RGL3 | -0.0882 | 1.21 | -0.00598 | 0.104
